For seven substances, binding results are on record in patent publication US20080050387A1, “Non-Androgen Dependent Roles for Androgen Receptor and Non-Androgen Related Inhibitors of Androgen Receptor” (priority 2003, published 2008).

Chains of the proteins cited; added tags and fusions are not shown. Lines headed by an entry give the natural chain unless they say otherwise; changes in a name come on top.
UniProt P10275: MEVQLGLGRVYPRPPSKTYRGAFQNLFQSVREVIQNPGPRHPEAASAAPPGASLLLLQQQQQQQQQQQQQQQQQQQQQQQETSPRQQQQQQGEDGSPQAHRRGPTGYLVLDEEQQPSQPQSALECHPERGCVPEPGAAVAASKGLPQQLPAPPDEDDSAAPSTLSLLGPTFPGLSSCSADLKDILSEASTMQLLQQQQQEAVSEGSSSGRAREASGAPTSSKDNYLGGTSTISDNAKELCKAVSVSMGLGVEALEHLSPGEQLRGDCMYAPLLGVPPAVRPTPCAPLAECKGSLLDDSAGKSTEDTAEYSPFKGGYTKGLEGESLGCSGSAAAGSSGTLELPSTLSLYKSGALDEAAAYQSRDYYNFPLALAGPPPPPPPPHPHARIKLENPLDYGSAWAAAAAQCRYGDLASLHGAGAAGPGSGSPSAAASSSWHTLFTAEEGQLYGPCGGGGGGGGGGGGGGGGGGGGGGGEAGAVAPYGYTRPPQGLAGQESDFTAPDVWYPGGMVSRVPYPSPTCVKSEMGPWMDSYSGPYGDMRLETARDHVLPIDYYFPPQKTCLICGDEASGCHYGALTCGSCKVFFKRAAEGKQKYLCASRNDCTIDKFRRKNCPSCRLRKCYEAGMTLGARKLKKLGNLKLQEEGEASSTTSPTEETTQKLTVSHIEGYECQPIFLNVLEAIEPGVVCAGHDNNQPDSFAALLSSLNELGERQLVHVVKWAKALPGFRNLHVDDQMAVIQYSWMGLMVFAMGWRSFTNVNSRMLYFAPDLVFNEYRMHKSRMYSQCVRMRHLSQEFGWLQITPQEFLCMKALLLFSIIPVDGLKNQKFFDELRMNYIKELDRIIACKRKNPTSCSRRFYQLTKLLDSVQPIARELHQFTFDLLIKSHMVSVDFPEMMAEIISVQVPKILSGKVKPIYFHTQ
UniProt Q92624: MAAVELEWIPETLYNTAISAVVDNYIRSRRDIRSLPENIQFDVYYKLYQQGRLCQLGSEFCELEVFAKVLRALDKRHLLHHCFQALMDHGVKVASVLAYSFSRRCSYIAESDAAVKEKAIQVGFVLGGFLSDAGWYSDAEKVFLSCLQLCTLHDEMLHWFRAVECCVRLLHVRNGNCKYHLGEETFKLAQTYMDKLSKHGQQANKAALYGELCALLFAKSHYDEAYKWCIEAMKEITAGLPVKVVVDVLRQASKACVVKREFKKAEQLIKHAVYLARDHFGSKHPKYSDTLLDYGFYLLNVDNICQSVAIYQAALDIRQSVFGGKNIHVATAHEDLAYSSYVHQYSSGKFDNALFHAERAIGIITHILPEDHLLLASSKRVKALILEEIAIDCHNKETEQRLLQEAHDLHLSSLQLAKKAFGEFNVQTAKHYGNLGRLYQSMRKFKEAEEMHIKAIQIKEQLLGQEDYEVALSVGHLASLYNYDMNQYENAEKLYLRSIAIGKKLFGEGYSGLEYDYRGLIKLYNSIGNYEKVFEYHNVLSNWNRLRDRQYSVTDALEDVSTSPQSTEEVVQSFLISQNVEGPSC
UniProt P49841: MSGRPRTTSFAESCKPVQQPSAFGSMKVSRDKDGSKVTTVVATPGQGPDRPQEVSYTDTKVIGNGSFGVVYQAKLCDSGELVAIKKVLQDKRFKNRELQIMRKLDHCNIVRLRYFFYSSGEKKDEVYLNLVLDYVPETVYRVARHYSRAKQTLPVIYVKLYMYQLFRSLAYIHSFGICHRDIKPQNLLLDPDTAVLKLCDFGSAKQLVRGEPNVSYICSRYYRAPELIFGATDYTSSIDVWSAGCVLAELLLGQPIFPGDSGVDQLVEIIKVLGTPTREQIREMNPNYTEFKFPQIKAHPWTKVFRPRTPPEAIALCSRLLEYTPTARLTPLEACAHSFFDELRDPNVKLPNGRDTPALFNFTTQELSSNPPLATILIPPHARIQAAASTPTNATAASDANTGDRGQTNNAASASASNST
UniProt Q13772: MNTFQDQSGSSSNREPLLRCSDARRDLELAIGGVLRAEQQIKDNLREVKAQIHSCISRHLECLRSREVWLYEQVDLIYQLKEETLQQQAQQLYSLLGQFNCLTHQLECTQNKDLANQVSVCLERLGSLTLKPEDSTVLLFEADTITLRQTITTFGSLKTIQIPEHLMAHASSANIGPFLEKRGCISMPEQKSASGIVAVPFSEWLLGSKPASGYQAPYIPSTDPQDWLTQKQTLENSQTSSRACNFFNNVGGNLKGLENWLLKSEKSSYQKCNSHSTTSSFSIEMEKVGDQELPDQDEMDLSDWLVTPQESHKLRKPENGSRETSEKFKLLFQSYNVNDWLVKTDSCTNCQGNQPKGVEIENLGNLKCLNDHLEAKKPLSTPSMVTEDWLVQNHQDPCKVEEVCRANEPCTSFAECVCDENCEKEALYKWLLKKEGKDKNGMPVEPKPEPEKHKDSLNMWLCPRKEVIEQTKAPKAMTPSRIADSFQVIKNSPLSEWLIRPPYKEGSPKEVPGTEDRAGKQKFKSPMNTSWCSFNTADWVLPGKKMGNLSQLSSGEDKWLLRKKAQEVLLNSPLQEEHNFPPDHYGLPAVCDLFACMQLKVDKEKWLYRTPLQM

No constants are given. Whether binding was seen depends on the method and setting. For part of these data: In cells and extracts the contact can be indirect. Some entries that bind do so weakly or less than the wild type.

Assay [1] has as its target AR ligand-binding domain (AR LBD) (human) (UniProt P10275). The assay can be described thus: GST pull-down: GST-ARA67 fragments with 35S-labeled AR LBD.
Assay [2] shares this target. The assay can be described thus: GST pull-down (FIG. 9B).
Assay [3] shares this target. The assay can be described thus: summary of Example 2 (GST pull-down).
For assay [4] the target is unchanged. The assay can be described thus: GST pull-down: GST-ARA67 with 35S-labeled ARLBD.
Assay [5] shares this target. The assay can be described thus: GST pull-down: GST-ARA67 with 35S-labeled AR LBD.
For assay [6], the target named is AR N-terminal fragment ARN1-140 (human) (UniProt P10275). The assay can be described thus: GST pull-down: GST-ARN1-140 with 35S-labeled ARA67.
For assay [7], the target named is AR N-terminus, amino acids 1-537 (bait of the CytoTrap Sos screen) (human) (UniProt P10275). The assay can be described thus: CytoTrap Sos yeast two-hybrid (pSos-ARN + pMyr-ARA67).
Assay [8] shares this target. Briefly: CytoTrap Sos yeast two-hybrid, growth on SD/Gal(-LU) at 37° C.
Assay [9] concerns the target androgen receptor (AR), full length (human) (UniProt P10275). The assay can be described thus: co-immunoprecipitation (FIG. 19).
Assay [10] has the same target. The assay can be described thus: GST pull-down and co-immunoprecipitation.
Assay [11] shares this target. Briefly: GST pull-down: GST-GSK3β with 35S-labeled AR.
For assay [12] the target is unchanged. The assay can be described thus: GST pull-down and co-immunoprecipitation (FIG. 19).
The target is the same in assay [13]. The assay can be described thus: co-immunoprecipitation with anti-AR antibody from transfected COS-1 cells.
Assay [14] has the same target. The assay can be described thus: co-immunoprecipitation of endogenous proteins from LNCaP cells with anti-AR NH27, anti-GSK3β blot.
Assay [15] shares this target. The assay can be described thus: co-immunoprecipitation with anti-HA antibody from COS-1 cells transfected with AR and HA-GSK3β, anti-AR blot.
Another assay deals with AR DBD-LBD (human) (UniProt P10275). The assay can be described thus: yeast two-hybrid, liquid β-gal assay, bait GAL4 DBD-AR-DBD-LBD, DHT.

Take “ARA67 281-550 (from UniProt Q92624 281-550)”: the binding result in assay [1] was “binds”.

As for “ARA67/PAT1, full length (585 amino acids) (from UniProt Q92624 1-585)”, the binding entry in [2], in assay [3], in assay [4], in [5] and in [6] was “binds” each time.

“ARA67 clone of the CytoTrap screen, amino acids 20-585 of PAT1 (pMyr-ARA67) (from UniProt Q92624 20-585)”: the binding result in assay [7] and in assay [8] was “binds” each time.

Take “glycogen synthase kinase 3β (GSK3β), full length wild type (from UniProt P49841 1-420) (enzyme)”: the binding result in [9], in assay [10], in [11], in assay [12], in assay [13] and in [14] was “binds” in each case. In addition, in assay [15], the binding entry is given as “binds”.

As to ARA70 (from UniProt Q13772 1-614), in the assay with AR DBD-LBD (human), the binding result is “binds”.

With ARA67 8-140 (from UniProt Q92624 8-140), the binding entry in assay [1] was “binds”.

As for “ARA67 C-terminal region, ARA67 281-585 (from UniProt Q92624 281-585)”, the binding result in assay [1] is listed as “binds”.
